This is an account of results in PubChem BioAssay AID493014 (National Center for Advancing Translational Sciences (NCATS), 2011).

This assay can be described thus: qHTS Assay to Find Inhibitors of Chronic Active B-Cell Receptor Signaling. The following applies: ABC-DLBCL IkBa-CBG/CBR reporter, luminescence ratio (green luciferase fused to IkBa over red control in TMD8 lymphoma cells), 4 h. In a few lines: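 Doxycycline induced both beetle luciferases in TMD8 lymphoma cells; IKK-driven degradation limits the IkappaBalpha-fused green signal, while red luminescence normalises for cell number and nonspecific effects. Compounds tested up to 46 uM, 4 hrs.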
(In general: Quantitative high-throughput screening tests each substance at several concentrations.)

Setting [1] is: measured here: CBR red luminescence, cell number.
The mark [2] stands for this setting: measured here: IkBa-CBG green luminescence.

By AC50 is commonly meant the concentration giving half of the maximal activity seen.

The other results are listed elsewhere or left out. These are further read-outs of the screen, such as a control signal, another cell line or another target. No call is given for them. The list favours compounds with an active or inconclusive main result. Words in brackets tell the shape of the fitted curve; partial curves, single points and poor fits give uncertain potencies.

In the case of `CC1CCN(C(=O)c2ccc([N+](=O)[O-])o2)CC1`, the AC50 under setting [1] is 10 µM [rising, partial curve, poor fit]. Same read-out and setting: to `CC1(C)Cc2c(sc(NC(=O)COc3ccc(Cl)cc3)c2C#N)C(C)(C)N1` belongs 31.6 µM [falling, single point].

In the case of `Cn1cccc1C(NC(=O)c1ccccc1)C(Cl)(Cl)Cl` (configuration not stated), the AC50 under setting [1] is 7.94 µM [rising, partial curve, poor fit]. On the same count and under the same terms, to `CCN(Cc1ccccc1)Cc1ccc(OCc2ccccc2)c(OC)c1` belongs 7.08 µM [rising, full curve, poor fit]; to `COc1ccc(C(=O)NC(=S)NNC(=O)c2ccc(NC(=O)C(C)C)cc2)cc1`, 13 µM [rising, partial curve]. The same measure, in the same setting: to `Cn1c(-c2ccsc2)c(-c2cccs2)c2cc(-c3ccc4cc[nH]c4c3)ccc21` belongs 6.51 µM [falling, single point]; to `O=C(Cn1c(NCCO)nc2ccccc21)c1ccc([N+](=O)[O-])cc1`, 22.4 µM [falling, single point]. On the same count and under the same terms, to `COc1ccc(-c2cn3ccc4ccccc4c3n2)cc1` belongs 1.84 µM [rising, full curve, poor fit]; to `C/C(=N\NC(=O)c1ccc(O)cc1)c1cc2ccccc2o1`, 11.2 µM [falling, partial curve, poor fit]. Turning to `COc1ccc(OC)c2[nH]c(=O)c(CCNC(=O)c3cccs3)cc12`, under setting [1], the AC50 is 1.41 µM [rising, full curve]. Turning to `Cc1c(C(=O)N2CCOCC2)[nH]c2ccc(OCc3ccccc3)cc12`, the AC50 under setting [1] was 2.31 µM [rising, partial curve, poor fit].

Take `O=C(Nc1c2c(nn1-c1ccc(Cl)cc1)CS(=O)(=O)C2)c1ccc2c(c1)OCO2`: the AC50 runs as follows: under setting [1], 29.1 µM [rising, single point]; under setting [2], 23.1 µM [falling, single point]. As to `Nc1nc(-c2cc(Cl)cc(Cl)c2OC(F)F)cs1`, the AC50 under setting [1] was 35.5 µM [rising, single point].

Regarding `CCCC(=O)N1CCN(c2nc3ccc(Br)cc3s2)CC1`, the AC50 under setting [1] is 1.58 µM [rising, partial curve, poor fit]. Consider `O=C(Nc1ccncc1)c1sc2ccccc2c1Cl`, for which, under setting [1], the AC50 is 10 µM [falling, partial curve, poor fit]. Same read-out and setting: to `CC1CCN(CCCNC(=O)c2coc3nc4ccccc4nc23)CC1` belongs 18.4 µM [falling, single point]. `COc1ccccc1N1CCN(CC(O)c2c(C)[nH]c3ccccc23)CC1` (configuration not stated): under setting [1], the AC50 is 7.94 µM [falling, partial curve, poor fit]. Same read-out and setting: to `Cc1oc(-c2cccc(Cl)c2)nc1CN1CCCC(C(=O)NC(C)c2ccc3c(c2)OCCO3)C1` (configuration not stated) belongs 2.06 µM [rising, full curve, poor fit]; to `O=C(NCC1CCCO1)c1ccc2c(c1)C(=O)N(c1cccc([N+](=O)[O-])c1)C2=O` (configuration not stated), 0.355 µM [rising, partial curve, poor fit]; to `O=C(Nc1ncccn1)c1cccc(F)c1`, 2.82 µM [falling, single point]. Same read-out and setting: to `CCC(=O)OCC(=O)C1(OC(=O)CC)[C@H](C)C[C@H]2[C@H]3[C@H]([C@@H](O)C[C@@]21C)[C@@]1(C)C=CC(=O)C=C1C[C@H]3Cl` (some centres not stated) belongs 0.00517 µM [rising, full curve, poor fit].

For the molecule `COc1ccc(C=NNc2ccc([N+](=O)[O-])cc2S(=O)(=O)Nc2ccccc2C(=O)O)cc1OC`, the AC50 is, setting by setting: under setting [1], 29.1 µM [rising, single point]; under setting [2], 20.6 µM [falling, partial curve, poor fit]. On to `CCOc1cc(/C=C(\C#N)C(=O)Nc2cccc(C(=O)O)c2)ccc1OCc1ccc(Br)cc1`, for which the AC50 under setting [1] is 11.2 µM [rising, partial curve, poor fit]. For the molecule `CCOC(CCNC(=O)c1cn(-c2cccc(C)n2)cn1)OCC`, the AC50 under setting [1] was 8.91 µM [falling, partial curve]. Take `COc1ccccc1NC(=O)NC(=O)c1ccccc1`: the AC50 under setting [1] was 1.58 µM [falling, full curve, poor fit]. The same measure, in the same setting: to `CN1CCC(=C(c2ccc(Cl)cc2)c2ccccn2)CC1` belongs 11.2 µM [falling, single point]; to `COc1cccc(/C=N/Nc2ccnc(=O)[nH]2)c1O`, 11.2 µM [falling, partial curve]. Still for that read-out and setting: to `O=C(CSC(=S)N1CCCC1)N1CCN(S(=O)(=O)c2ccccc2F)CC1` belongs 1.84 µM [rising, full curve]; to `CCOC(=O)N1CCN(C(=O)c2cc(COc3ccc4ncccc4c3)on2)CC1`, 22.4 µM [falling, single point]; to `O=C(CSC1=NS(=O)(=O)c2ccccc2N1)Nc1ccc(F)cc1`, 29.1 µM [falling, single point]. As for `CC12CCC(=O)N1C(C(=O)Nc1nc3ccc(Cl)cc3s1)CS2` (configuration not stated), the AC50 is, setting by setting: under setting [1], 5.17 µM [falling, partial curve]; under setting [2], 3.26 µM [rising, partial curve, poor fit].

In the case of `Cc1cc(NC(=O)CCCC(=O)N(CC(=O)NCCc2ccccc2)Cc2ccc(F)cc2)no1`, under setting [1], the AC50 was 35.5 µM [rising, partial curve, poor fit]. Still for that read-out and setting: to `CSc1cc(-c2ccc(Cl)cc2)[nH]c(=O)c1C#N` belongs 0.316 µM [rising, full curve, poor fit]. The same measure, in the same setting: to `C/C(=N\Nc1ccc(S(=O)(=O)N2CCCCC2)cn1)c1cccc(Br)c1` belongs 0.184 µM [rising, full curve, poor fit]; to `CNc1nc(-c2ccc3c(c2)CCN3C(=O)c2ccc(F)cc2)cs1`, 12.6 µM [falling, single point]. Take `Cc1occc1C(=O)N/N=C/C(Br)=C/c1ccccc1`: the AC50 reads like this: under setting [1], 15.8 µM [falling, partial curve]; under setting [2], 15.8 µM [falling, single point]. For `COc1ccc(CC(=O)N2CC(C)CC(C)C2)cc1OC` (configuration not stated), under setting [1], the AC50 is 20.6 µM [rising, single point]. Regarding `CCn1cc(C(=O)O)c(=O)c2cc(F)c(N/N=C/c3ccccc3)cc21`, the AC50 under setting [1] was 4.11 µM [falling, partial curve]. Same read-out and setting: to `Cc1ccc(NC(=O)C(c2ccccc2)N2CCN(CC(=O)N3CCOCC3)CC2)cc1Cl` (configuration not stated) belongs 1.46 µM [rising, full curve]. On the same count and under the same terms, to `CN(CC(=O)NCc1ccco1)C(=O)C1CC(=O)N(c2ccc3c(c2)OCCO3)C1` (configuration not stated) belongs 9.2 µM [rising, partial curve, poor fit]. Same read-out and setting: to `O=C(CNCC1CCCCC1)Nc1ccc(OC(F)(F)F)cc1` belongs 7.08 µM [rising, full curve]; to `O=C1Nc2ccc(Cl)cc2C(=O)C1(F)c1ccccc1` (configuration not stated), 35.5 µM [falling, single point]. With `CCOC(=O)c1c(CSC(=N)N)n(-c2ccc(Br)cc2)c2cc(Br)c(OC(C)=O)cc12`, the AC50 under setting [1] is 20.6 µM [rising, single point]. Still for that read-out and setting: to `Cc1ccc(-c2nnc3cccc(Cl)n23)cc1` belongs 35.5 µM [rising, single point]. Turning to `CC(C)C(C)NC(=O)COn1nnc2ccc(S(=O)(=O)N3CCOCC3)cc21` (configuration not stated), the AC50 under setting [1] was 6.51 µM [falling, single point]. Same read-out and setting: to `COc1ccc(-c2csc(NC(=S)NC(=O)/C=C/c3ccc(C(C)C)cc3)n2)cc1OC` belongs 0.126 µM [rising, full curve, poor fit]. The same measure, in the same setting: to `Cc1[nH]c2ccccc2c1C(=O)COC(=O)c1ccc2c(=O)n3c(nc2c1)CCC3` belongs 2.24 µM [falling, partial curve, poor fit].

`COc1ccc(/C=C/C(=O)Nc2cccnc2Cl)cc1`: under setting [1], the AC50 was 14.1 µM [falling, partial curve, poor fit]. On to `CCC(=O)Nc1ccc(C(=O)CSc2nnc(-c3cccnc3)o2)cc1`, for which, under setting [1], the AC50 is 0.146 µM [rising, full curve, poor fit]. The same measure, in the same setting: to `Cc1ccc(NS(=O)(=O)c2ccc(Cl)c(C(=O)Nc3ccccc3-c3nc4ccccc4[nH]3)c2)cc1C` belongs 0.651 µM [rising, partial curve, poor fit]; to `O=C(NNC(=O)c1ccccc1Br)c1cccc(Cl)c1`, 25.1 µM [falling, single point].

Regarding `Cc1ccc(/C=N\NC(=O)C2CC(=O)N(c3ccccc3)C2)o1` (configuration not stated), the AC50 under setting [1] is 2.24 µM [rising, partial curve, poor fit].

Take `O=C(Nc1cccc(Br)c1)c1ccc2nc(N3C(=O)CCC3=O)sc2c1`: the AC50 under setting [1] is 12.6 µM [falling, single point].

In the case of `Cc1ccc(SC2CC(=O)N(c3ccc4c(c3)OCCO4)C2=O)cc1` (configuration not stated), the half-maximal activity concentration (AC50) under setting [1] is 35.5 µM [falling, single point]. The same measure, in the same setting: to `COC(=O)NNC(=O)COc1ccc2ccccc2c1Br` belongs 6.51 µM [rising, single point]; to `CC(=O)c1cccc(CN2CCCC(C(=O)Nc3ccc(-c4ccco4)cc3)C2)c1` (configuration not stated), 12.6 µM [falling, single point]. Same read-out and setting: to `CCc1ccc(CCC(=O)Nc2ccc(C(=O)O)cc2)o1` belongs 8.91 µM [falling, partial curve]. Still for that read-out and setting: to `NC(=O)c1ccccc1N/C=C/C(=O)c1ccc(Cl)cc1Cl` belongs 14.1 µM [falling, single point]; to `C=CCn1c(C)cc(-c2csc(NC)n2)c1C`, 35.5 µM [falling, partial curve, poor fit]; to `CC(C)OP(=O)(c1ccc(N(C)C)cc1)C(Nc1ccccc1)c1ccccc1` (configuration not stated), 17.8 µM [falling, single point]. Consider `CS(=O)(=O)c1ccc(C(=O)OCC(=O)Nc2cccnc2Cl)cc1[N+](=O)[O-]`, for which the AC50 under setting [1] was 20.6 µM [falling, single point]. Take `Oc1[nH]c2ccccc2c1N=NC(=S)N1CCOCC1`: the AC50 is 35.5 µM [falling, single point] under setting [1] and 1 µM [falling, full curve, poor fit] under setting [2].
